Reference: PubChem BioAssay AID1259291 (Sanger Institute, 2017)

Assay: 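Genes needed for HT29 colorectal cancer cell survival or for sensitivity to drugs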 (primary screen)
Cell system: HT29 human colorectal cancer cells
Knock-down reagent: siRNA pool against human genes
Conditions: anchor drugs added a day after transfection: BYL719 at 1 µM, cetuximab at 5 µg/ml or trametinib at 10 nM, or DMSO vehicle alone
Measurement: 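Replicate-averaged viability relative to non-targeting pool, robust z-score based on control wells, plus per-drug synergy score for 1 µM BYL719, 5 µg/ml cetuximab and 10 nM trametinib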
Scale: robust z-score, knock-down alone and viability, knock-down alone: higher = more viable cells
Units: viability, knock-down alone in fraction of control
Rule for the call: 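Essential when the robust z-score for knock-down without any drug is below -3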
Calls: active = essential (knock-down alone); inactive = no change alone
The deposit covers 794 reagents; this is a part drawn at random. In the full data, 15 (1.9%) were called active. 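Calls rest on knock-down alone; drug synergy scores do not affect them; drugs added a day post-transfection, DMSO vehicle as comparison.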 No viability above 1 is reported: the scale is capped. Further read-outs or replicates are left out here. Not stated in the record: the amount of reagent, the time to read-out.

NEK6: robust z-score, knock-down alone = 0.37; viability, knock-down alone = 0.989; outcome = inactive
MAP3K19: robust z-score, knock-down alone = 0.552; viability, knock-down alone = 1; outcome = inactive
RFK: robust z-score, knock-down alone = 0.552; viability, knock-down alone = 1; outcome = inactive
ADCK2: robust z-score, knock-down alone = 0.0635; viability, knock-down alone = 0.97; outcome = inactive
PRKCQ: robust z-score, knock-down alone = 0.552; viability, knock-down alone = 1; outcome = inactive
PRKCH: robust z-score, knock-down alone = 0.552; viability, knock-down alone = 1; outcome = inactive
PTEN: robust z-score, knock-down alone = -1.76; viability, knock-down alone = 0.856; outcome = inactive
COMMD3: robust z-score, knock-down alone = -1.67; viability, knock-down alone = 0.862; outcome = inactive
LRRK1: robust z-score, knock-down alone = 0.552; viability, knock-down alone = 1; outcome = inactive
MAST3: robust z-score, knock-down alone = -2.14; viability, knock-down alone = 0.833; outcome = inactive
NADK: robust z-score, knock-down alone = 0.552; viability, knock-down alone = 1; outcome = inactive
WHR1: robust z-score, knock-down alone = 0.552; viability, knock-down alone = 1; outcome = inactive
GNE: robust z-score, knock-down alone = -0.586; viability, knock-down alone = 0.929; outcome = inactive
IP6K1: robust z-score, knock-down alone = 0.552; viability, knock-down alone = 1; outcome = inactive
CAMK2D: robust z-score, knock-down alone = 0.552; viability, knock-down alone = 1; outcome = inactive
TYK2: robust z-score, knock-down alone = 0.552; viability, knock-down alone = 1; outcome = inactive
MAP3K11: robust z-score, knock-down alone = -0.211; viability, knock-down alone = 0.953; outcome = inactive
CKMT1B: robust z-score, knock-down alone = 0.552; viability, knock-down alone = 1; outcome = inactive
GATA3: robust z-score, knock-down alone = 0.339; viability, knock-down alone = 0.987; outcome = inactive

2 of these entries in another layout.
{"Gene":"NEK6","robust z-score, knock-down alone":0.37,"viability, knock-down alone":0.989,"outcome":"inactive"}
{"Gene":"MAP3K19","robust z-score, knock-down alone":0.552,"viability, knock-down alone":1,"outcome":"inactive"}
